For 1 molecule, binding results are on record in paper doi:10.1101/2020.02.05.923433 (bioRxiv, 2020).

Protein sequences, listed by entry. Tags and fused reporters are not part of them.
UniProt O75901: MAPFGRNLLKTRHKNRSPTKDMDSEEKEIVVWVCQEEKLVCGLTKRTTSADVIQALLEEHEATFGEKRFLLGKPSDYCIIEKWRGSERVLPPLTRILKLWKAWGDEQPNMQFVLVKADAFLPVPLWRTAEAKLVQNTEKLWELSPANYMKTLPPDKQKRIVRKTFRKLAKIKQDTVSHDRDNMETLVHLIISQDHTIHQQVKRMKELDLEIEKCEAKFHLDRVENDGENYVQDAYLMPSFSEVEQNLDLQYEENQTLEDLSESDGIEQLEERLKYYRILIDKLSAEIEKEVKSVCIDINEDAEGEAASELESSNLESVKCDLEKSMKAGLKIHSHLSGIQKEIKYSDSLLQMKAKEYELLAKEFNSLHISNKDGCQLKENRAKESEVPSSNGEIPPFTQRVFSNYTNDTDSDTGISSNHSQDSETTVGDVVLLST

What all share (test): co-IP
In assay [1] the target is T1, full-length FLAG-RASSF10 (mouse) (UniProt Q8BL43).
T1 sequence: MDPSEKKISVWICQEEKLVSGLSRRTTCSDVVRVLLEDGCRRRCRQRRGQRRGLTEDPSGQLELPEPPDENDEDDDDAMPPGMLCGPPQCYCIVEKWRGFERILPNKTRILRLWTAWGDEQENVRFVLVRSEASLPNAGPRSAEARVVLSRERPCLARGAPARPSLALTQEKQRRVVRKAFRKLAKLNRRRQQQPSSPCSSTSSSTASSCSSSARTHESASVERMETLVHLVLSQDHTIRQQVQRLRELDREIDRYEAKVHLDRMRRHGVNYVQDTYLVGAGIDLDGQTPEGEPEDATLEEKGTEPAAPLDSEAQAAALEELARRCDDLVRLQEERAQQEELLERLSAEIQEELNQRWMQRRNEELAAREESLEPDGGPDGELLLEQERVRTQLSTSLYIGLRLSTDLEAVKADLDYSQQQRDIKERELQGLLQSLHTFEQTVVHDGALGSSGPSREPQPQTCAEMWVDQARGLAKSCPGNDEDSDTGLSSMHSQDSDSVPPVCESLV

For assay [2], the target named is T2, full-length FLAG-RASSF1A (human) (UniProt Q9NS23).
T2 sequence: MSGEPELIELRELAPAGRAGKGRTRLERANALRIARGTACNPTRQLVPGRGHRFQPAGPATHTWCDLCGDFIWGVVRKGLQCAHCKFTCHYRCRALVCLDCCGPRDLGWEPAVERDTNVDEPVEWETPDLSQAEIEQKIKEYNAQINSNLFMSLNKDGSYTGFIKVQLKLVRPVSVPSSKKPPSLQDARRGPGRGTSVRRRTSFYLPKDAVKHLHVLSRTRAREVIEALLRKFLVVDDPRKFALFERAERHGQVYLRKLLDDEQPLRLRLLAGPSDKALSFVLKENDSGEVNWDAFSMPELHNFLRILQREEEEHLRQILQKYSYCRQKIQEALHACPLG

For assay [3], the target named is T3, full-length FLAG-RASSF2 (human) (UniProt P50749).
T3 sequence: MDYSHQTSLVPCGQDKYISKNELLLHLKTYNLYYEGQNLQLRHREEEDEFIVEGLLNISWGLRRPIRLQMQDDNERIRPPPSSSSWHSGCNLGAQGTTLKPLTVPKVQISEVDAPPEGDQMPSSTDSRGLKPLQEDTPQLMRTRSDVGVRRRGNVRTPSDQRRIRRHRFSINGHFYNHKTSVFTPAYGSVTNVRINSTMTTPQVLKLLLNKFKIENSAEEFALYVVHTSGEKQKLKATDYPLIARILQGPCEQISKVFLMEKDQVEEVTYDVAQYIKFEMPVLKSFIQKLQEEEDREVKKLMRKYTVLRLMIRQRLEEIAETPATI

Assay [4] addresses T4, full-length FLAG-RASSF3 (UniProt Q86WH2).
T4 sequence: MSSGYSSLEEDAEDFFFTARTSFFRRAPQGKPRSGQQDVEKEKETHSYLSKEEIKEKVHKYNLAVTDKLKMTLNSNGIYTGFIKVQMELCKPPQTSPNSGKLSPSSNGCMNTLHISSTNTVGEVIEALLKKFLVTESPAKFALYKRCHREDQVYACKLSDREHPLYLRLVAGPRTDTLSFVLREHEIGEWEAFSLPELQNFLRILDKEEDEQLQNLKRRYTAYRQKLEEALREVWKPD

Assay [5] has as its target T5, full-length FLAG-RASSF4 (mouse) (UniProt Q8CB96).
T5 sequence: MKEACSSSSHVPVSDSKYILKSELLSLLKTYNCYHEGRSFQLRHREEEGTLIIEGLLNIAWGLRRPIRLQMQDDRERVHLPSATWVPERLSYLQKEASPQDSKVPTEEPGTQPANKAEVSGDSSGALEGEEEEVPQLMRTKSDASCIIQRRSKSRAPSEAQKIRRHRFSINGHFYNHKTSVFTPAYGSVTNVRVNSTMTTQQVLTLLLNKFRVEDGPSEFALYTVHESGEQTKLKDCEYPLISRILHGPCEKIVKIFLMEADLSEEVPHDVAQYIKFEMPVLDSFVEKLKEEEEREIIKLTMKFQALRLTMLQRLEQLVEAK

Assay [6] concerns the target T6, full-length FLAG-RASSF5 (human) (UniProt Q8WWW0).
T6 sequence: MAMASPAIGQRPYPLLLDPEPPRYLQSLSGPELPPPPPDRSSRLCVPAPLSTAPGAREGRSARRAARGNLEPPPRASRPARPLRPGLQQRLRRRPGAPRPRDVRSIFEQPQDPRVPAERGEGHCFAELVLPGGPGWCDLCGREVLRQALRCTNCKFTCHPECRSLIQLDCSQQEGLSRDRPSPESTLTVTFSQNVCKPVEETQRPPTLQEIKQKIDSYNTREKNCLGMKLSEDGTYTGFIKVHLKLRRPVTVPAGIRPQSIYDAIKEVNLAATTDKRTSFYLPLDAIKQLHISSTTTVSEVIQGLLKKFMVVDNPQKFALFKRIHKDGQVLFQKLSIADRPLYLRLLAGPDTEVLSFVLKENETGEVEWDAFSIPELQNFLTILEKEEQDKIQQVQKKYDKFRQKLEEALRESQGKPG

Assay [7] concerns the target T7, full-length FLAG-RASSF6 (UniProt Q6ZTQ3).
T7 sequence: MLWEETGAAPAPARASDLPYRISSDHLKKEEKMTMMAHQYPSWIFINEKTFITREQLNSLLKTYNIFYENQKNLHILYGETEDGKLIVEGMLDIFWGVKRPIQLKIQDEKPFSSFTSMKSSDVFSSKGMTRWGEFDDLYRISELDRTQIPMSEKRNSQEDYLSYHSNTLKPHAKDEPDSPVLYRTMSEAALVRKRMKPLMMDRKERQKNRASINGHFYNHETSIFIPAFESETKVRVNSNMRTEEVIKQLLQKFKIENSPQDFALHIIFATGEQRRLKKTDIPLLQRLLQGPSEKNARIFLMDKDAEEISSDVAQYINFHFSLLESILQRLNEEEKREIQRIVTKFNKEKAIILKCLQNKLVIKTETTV

The target of assay [8] is T8, full-length FLAG-RASSF8 (UniProt Q8NHQ8).
T8 sequence: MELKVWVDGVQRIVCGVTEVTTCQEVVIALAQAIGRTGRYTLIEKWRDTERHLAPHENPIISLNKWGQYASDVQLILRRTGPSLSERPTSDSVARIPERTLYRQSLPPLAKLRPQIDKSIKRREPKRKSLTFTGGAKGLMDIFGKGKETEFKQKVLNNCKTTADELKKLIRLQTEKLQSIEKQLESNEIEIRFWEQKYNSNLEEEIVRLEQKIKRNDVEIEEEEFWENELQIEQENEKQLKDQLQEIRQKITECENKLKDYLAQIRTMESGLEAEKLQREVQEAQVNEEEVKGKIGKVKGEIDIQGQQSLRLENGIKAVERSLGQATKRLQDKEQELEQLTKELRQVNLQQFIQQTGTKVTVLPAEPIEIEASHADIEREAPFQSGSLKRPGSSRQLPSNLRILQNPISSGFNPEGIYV

The target of assay [9] is full-length FLAG-RASSF9 (human) (UniProt O75901).

These are yes or no findings as the source states them, for the method shown. In cells and extracts the contact can be indirect. Some binding calls cover weakened binding; strength is not graded here. Tags and fused reporters may be left off the sequences shown.

B1: HIS-tagged ASPP2 (protein, UniProt Q13625 1-1128)
chain: MMPMFLTVYLSNNEQHFTEVPVTPETICRDVVDLCKEPGESDCHLAEVWCGSERPVADNERMFDVLQRFGSQRNEVRFFLRHERPPGRDIVSGPRSQDPSLKRNGVKVPGEYRRKENGVNSPRMDLTLAELQEMASRQQQQIEAQQQLLATKEQRLKFLKQQDQRQQQQVAEQEKLKRLKEIAENQEAKLKKVRALKGHVEQKRLSNGKLVEEIEQMNNLFQQKQRELVLAVSKVEELTRQLEMLKNGRIDSHHDNQSAVAELDRLYKELQLRNKLNQEQNAKLQQQRECLNKRNSEVAVMDKRVNELRDRLWKKKAALQQKENLPVSSDGNLPQQAASAPSRVAAVGPYIQSSTMPRMPSRPELLVKPALPDGSLVIQASEGPMKIQTLPNMRSGAASQTKGSKIHPVGPDWSPSNADLFPSQGSASVPQSTGNALDQVDDGEVPLREKEKKVRPFSMFDAVDQSNAPPSFGTLRKNQSSEDILRDAQVANKNVAKVPPPVPTKPKQINLPYFGQTNQPPSDIKPDGSSQQLSTVVPSMGTKPKPAGQQPRVLLSPSIPSVGQDQTLSPGSKQESPPAAAVRPFTPQPSKDTLLPPFRKPQTVAASSIYSMYTQQQAPGKNFQQAVQSALTKTHTRGPHFSSVYGKPVIAAAQNQQQHPENIYSNSQGKPGSPEPETEPVSSVQENHENERIPRPLSPTKLLPFLSNPYRNQSDADLEALRKKLSNAPRPLKKRSSITEPEGPNGPNIQKLLYQRTTIAAMETISVPSYPSKSASVTASSESPVEIQNPYLHVEPEKEVVSLVPESLSPEDVGNASTENSDMPAPSPGLDYEPEGVPDNSPNLQNNPEEPNPEAPHVLDVYLEEYPPYPPPPYPSGEPEGPGEDSVSMRPPEITGQVSLPPGKRTNLRKTGSERIAHGMRVKFNPLALLLDSSLEGEFDLVQRIIYEVDDPSLPNDEGITALHNAVCAGHTEIVKFLVQFGVNVNAADSDGWTPLHCAASCNNVQVCKFLVESGAAVFAMTYSDMQTAADKCEEMEEGYTQCSQFLYGVQEKMGIMNKGVIYALWDYEPQNDDELPMKEGDCMTIIHREDEDEIEWWWARLNDKEGYVPRNLLGLYPRIKPRQRSLA
On to B1, for which the binding entry in [1] is “binds”; in assay [2] it was “no binding”; in [3], “no binding”; in assay [4], “no binding”; in [5], “no binding”; in assay [6], “no binding”. In addition, the binding result is listed as “no binding” in assay [7], “binds” in assay [8] and “binds” in assay [9].
